# In article PMC12040169 (PLOS Biology, 2025):
# The list shows a part of the results.
# System: T1, CTL2-GFP (C. trachomatis L2/434/Bu, GFP-expressing)
# T1 construct: L2/434/Bu, GFP-expressing
# Parameters: species or system HeLa; Intracellular C. trachomatis growth in HeLa cells, bulk GFP fluorescence relative to DMSO
# Details: bulk GFP, single well; 28.5 h, 10 µM; inhibitor
row,Compound,% of control remaining [%]
1,Cc1ccc(Cn2nc(C)c(NC(=O)c3nc4ncccn4n3)c2C)cc1 [CBK268912],114.075
2,O=C(Nc1ccc(N2CCNCC2)c2ccccc12)c1coc2c1C(=O)CCC2 [CBK038946T],72.8149
3,Nc1nonc1C(=O)NCCNCc1cccs1 [CBK267305],155.99
4,Brc1ccc(CN2CCN3CCCC3C2C2CCCCC2)o1 (stereo not shown) [CBK021456],106.428
5,CCOC(=O)NC(=O)N1CCC(N2C(=O)OCC2(C)C)CC1 [CBK044179],59.1325
6,C/C(=N/NC(=O)CSc1nc2ccccc2n1C)c1cccc([N+](=O)[O-])c1 [CBK263179],113.766
7,COc1ccccc1NC(=O)C(=O)NCCc1c[nH]c2ccccc12 [CBK266672],101.011
8,c1cn2cc(-c3ccc(N4CCOCC4)cc3)nc(NCC3CCOCC3)c2n1 [CBK037308],231.685
9,O=C(CSc1nnc(-c2ccccc2O)n1-c1ccccc1)N1CCc2ccccc21 [CBK268097],110.621
10,O=C(/C=C/c1c(Cl)cccc1Cl)Nc1ccc(S(=O)(=O)Nc2ncccn2)cc1 [CBK265490],126.28
11,CCn1ncc(CN2C3CCC2CC(O)(c2ccccc2F)C3)c1C (stereo not shown) [CBK282663],125.675
12,O=C(OCc1ccccc1)N1CCC(C2OCc3cc(-c4cccc5ncccc45)ccc3O2)CC1 (stereo not shown) [CBK144644],81.0076
13,O=C(O)c1sccc1Oc1ccc(F)cc1[N+](=O)[O-] [CBK066847],95.6063
14,COc1cnc(-c2cc(Cl)cc(Cl)c2)c(NC(C)=O)n1 [CBK145333],161.991
15,CCOc1ccc(-c2nc(CC(=O)O)cs2)cc1 [CBK295300],175.143
16,O=C1N=C(NCC2CCCCC2)SC1CC(=O)N1CCCC(O)C1 (stereo not shown) [CBK067919],111.807
17,CO[C@@H]1CO[C@H]2[C@@H]1OC[C@@H]2NC(=O)Nc1cccc(C(F)(F)F)c1 [CBK289461],93.3558
18,CC(=O)N1CCC[C@H]1Cn1nc(-c2cccs2)ccc1=O [CBK284249],134.304
19,COc1ccccc1C1(NCc2cnn(C)c2)CCCC1 [CBK282744],153.608
20,O=C(CC(CN1CCCN(c2ncccn2)CC1)C(=O)O)NCc1ccccc1 (stereo not shown) [CBK286856],142.447
21,Cc1ccc(C(=O)C2(O)CCN(CCCC(c3ccc(F)cc3)c3ccc(F)cc3)CC2)cc1 [CBK025221C],59.6187
22,C/C(=N\NC(=O)c1nonc1N)c1ccc(Cl)cc1 [CBK025664],120.044

# Three entries out of the list, ordered by molecular weight, high to low.
row,Compound,% of control remaining [%]
12,O=C(OCc1ccccc1)N1CCC(C2OCc3cc(-c4cccc5ncccc45)ccc3O2)CC1 (stereo not shown) [CBK144644],81.0076
10,O=C(/C=C/c1c(Cl)cccc1Cl)Nc1ccc(S(=O)(=O)Nc2ncccn2)cc1 [CBK265490],126.28
3,Nc1nonc1C(=O)NCCNCc1cccs1 [CBK267305],155.99
